According to publication PMC4990909:
Results are given in words; binding and its absence hold for the method and conditions named. Binding seen in cells or lysates may run through a third protein. Some entries that bind do so weakly or less than the wild type.

Amino acid sequences for entries named in this document (tags omitted).
UniProt Q1HFZ0: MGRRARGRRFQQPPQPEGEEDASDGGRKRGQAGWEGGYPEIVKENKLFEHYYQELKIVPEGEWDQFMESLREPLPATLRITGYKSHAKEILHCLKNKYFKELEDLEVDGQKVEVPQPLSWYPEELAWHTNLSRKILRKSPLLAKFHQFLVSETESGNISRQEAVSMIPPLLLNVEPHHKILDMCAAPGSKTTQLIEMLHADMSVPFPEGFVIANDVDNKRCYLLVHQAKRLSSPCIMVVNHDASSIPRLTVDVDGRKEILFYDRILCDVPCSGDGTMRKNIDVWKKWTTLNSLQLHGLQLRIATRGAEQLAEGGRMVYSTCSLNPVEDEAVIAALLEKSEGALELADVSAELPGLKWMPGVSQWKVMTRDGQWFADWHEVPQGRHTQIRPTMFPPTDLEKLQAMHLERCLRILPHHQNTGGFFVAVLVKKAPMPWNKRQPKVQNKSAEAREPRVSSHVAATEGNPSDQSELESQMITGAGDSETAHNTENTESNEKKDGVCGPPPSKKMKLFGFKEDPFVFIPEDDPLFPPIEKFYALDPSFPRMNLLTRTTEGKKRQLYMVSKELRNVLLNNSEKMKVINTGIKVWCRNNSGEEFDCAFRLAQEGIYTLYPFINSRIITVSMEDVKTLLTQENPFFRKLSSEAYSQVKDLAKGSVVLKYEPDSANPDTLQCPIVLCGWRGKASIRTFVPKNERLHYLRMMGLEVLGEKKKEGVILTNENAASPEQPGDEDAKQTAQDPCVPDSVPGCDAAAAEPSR
UniProt P62137: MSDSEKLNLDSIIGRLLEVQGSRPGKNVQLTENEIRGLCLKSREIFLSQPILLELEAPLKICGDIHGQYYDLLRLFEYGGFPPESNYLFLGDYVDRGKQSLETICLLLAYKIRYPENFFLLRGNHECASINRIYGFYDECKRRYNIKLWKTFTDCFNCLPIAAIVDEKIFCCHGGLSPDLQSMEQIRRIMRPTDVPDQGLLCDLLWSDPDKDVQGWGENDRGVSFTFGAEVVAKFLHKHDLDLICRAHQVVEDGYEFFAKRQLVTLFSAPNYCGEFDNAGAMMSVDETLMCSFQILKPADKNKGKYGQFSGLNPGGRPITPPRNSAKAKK

How the values were obtained:
[1] = target: NOP2/Sun RNA methyltransferase (NSun2) (mouse (endogenous in LβT2)) (UniProt Q1HFZ0); assay: co-IP; endogenous proteins; LβT2 cells with 10 nM GnRHa for 8 h; cells cross-linked in 1% formaldehyde for 10 min; RIPA lysate incubated overnight with 5 μg anti-Nsun2 antibody and Protein G Dynabeads; blot with anti-PP1CA
[2] = target: NOP2/Sun RNA methyltransferase (NSun2) (mouse (endogenous in LβT2)) (UniProt Q1HFZ0); assay: co-IP; endogenous proteins; LβT2 cells with 10 nM GnRHa for 4 h; cells cross-linked in 1% formaldehyde for 10 min; RIPA lysate incubated overnight with 5 μg anti-Nsun2 antibody and Protein G Dynabeads; blot with anti-PP1CA

catalytic subunit of PP1α (PPP1CA) (from UniProt P62137 1-330) (enzyme)
binding [1]: binds
binding [2]: no binding (condition: after 4 h of 10 nM GnRHa)
